Test [1] has as its target T1, GLP-1 Receptor (Homo sapiens, UniProt P43220). Briefly: GLP-1R agonist cAMP stimulation assay, Method 2 (HDB HEK293/GLP1R/CRE-LUC, Cisbio cAMP dynamic 2 kit). Particulars: read-out: GLP1R cAMP Stimulation DR: EC50 (nM) Method 2 (HDB); HEK293/GLP1R/CRE-LUC cells (HD Biosciences); 30 min at 37° C.; 0.5 mM IBMX, 0.1% BSA; geometric mean where n>=2.
The target in test [2] is T1, GLP-1 Receptor. Nature of the test: GLP-1R agonist cAMP stimulation assay, Method 1 (DiscoverX CHO-K1, enzyme fragment complementation). Conditions: read-out: GLP1R cAMP Stimulation DR: EC50 (nM) Method 1; CHO-K1 cell line (DiscoverX) stably expressing GLP-1 Receptor; incubation 30 or 60 min at 37° C.; geometric mean where n>=2.

Chains of the proteins cited; added tags and fusions are not shown. Residues count along the entry.
UniProt P43220, 24-463 limits assumed: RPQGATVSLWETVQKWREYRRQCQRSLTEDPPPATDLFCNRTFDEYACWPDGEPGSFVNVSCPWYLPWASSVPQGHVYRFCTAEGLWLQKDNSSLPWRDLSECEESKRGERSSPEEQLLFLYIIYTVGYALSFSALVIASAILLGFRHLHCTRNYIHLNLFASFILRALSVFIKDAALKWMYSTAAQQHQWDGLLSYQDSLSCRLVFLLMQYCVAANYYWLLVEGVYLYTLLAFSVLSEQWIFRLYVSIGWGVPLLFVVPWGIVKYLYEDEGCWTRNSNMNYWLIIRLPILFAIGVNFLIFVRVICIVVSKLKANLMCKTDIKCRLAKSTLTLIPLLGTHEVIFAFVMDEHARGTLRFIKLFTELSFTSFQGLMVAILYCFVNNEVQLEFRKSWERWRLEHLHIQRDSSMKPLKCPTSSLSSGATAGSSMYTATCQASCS

The structures given here were assigned with low confidence; some may be wrong.

As for `O=C(O)c1ccc2nc(COc3cc(-c4cccc(OCc5ccc(Cl)cc5F)n4)ccn3)n(C[C@@H]3CCO3)c2c1`, the figures for the EC50 at GLP-1 Receptor [1] and on GLP-1 Receptor [2] were 0.54 nM and 0.77 nM, respectively.

One may read the EC50 as the concentration giving half of the maximal effect.

The values above are taken from patent US20230165846A1, “HETEROCYCLIC GLP-1 AGONISTS” (Gasherbrum Bio, Inc., priority 2020, published 2023).
